In US20110312505A1:
These are yes or no findings as the source states them, for the method shown. Some binding calls cover weakened binding; strength is not graded here.

Amino acid sequences for entries named in this document (tags omitted). Residues count along the entry.
UniProt P09871, residues 16-688: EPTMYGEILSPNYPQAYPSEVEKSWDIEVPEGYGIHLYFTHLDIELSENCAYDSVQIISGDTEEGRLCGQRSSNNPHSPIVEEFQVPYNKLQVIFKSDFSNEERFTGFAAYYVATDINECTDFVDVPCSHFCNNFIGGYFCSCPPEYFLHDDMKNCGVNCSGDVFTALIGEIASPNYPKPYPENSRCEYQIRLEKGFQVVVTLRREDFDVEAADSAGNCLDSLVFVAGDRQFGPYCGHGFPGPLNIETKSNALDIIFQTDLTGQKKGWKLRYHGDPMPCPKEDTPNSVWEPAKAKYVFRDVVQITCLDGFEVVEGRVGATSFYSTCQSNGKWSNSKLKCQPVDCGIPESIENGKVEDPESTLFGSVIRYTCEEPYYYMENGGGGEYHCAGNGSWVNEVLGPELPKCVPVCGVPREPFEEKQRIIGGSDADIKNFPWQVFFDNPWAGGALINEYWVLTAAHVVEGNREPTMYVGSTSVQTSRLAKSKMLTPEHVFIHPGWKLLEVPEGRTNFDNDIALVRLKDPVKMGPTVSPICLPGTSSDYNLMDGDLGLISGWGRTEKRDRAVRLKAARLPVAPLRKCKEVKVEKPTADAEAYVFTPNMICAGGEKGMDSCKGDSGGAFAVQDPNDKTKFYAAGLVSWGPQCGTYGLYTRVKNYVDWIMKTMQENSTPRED
UniProt Q99856: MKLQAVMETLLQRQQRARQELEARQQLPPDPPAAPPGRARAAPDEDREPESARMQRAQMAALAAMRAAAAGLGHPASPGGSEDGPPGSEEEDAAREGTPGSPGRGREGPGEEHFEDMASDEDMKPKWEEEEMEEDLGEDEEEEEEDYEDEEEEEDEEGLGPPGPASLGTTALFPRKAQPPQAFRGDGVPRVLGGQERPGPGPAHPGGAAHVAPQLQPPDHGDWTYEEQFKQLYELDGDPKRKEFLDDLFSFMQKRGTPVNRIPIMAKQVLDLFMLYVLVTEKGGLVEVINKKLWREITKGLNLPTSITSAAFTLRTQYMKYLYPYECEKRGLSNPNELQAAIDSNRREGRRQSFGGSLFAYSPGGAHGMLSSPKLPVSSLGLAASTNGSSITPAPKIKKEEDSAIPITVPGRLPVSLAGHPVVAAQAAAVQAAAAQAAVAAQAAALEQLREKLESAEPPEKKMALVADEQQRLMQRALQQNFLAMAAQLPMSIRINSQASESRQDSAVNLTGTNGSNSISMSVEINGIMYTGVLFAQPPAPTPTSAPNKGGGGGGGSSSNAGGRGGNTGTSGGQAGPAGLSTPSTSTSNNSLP

Legend:
[1] = biological target: human complement protein C1s (human) (UniProt P09871); test: ELISA, E. coli lysate with scFv on antigen-coated wells; + means >3-fold signal over unrelated antigen
[2] = biological target: human B cell regulator of IgH transcription (BRIGHT) (human) (UniProt Q99856); test: as above

Binder	binding [1]	binding [2]
anti-Bright scFv 1.3L-1.3H (scFv) scFv: DIVMTQSPASLAVSLGQRATISCRASESVDSYGNSFMHWYQQKPGQPPKLLIYLASNLESGVPARFSGSGSRTDFTLTIDPVEADDAVTYYCQQNNEDPRTFGGGTKLEIKGGGGSGGGGSGGGGSGGGGSEVQLVESGGGLVQPGGSRKLSCAASGFTFSSFGMHWVRQAPEKGLEWVAYISSGSRTIYYADSVKGRFTISRDNPKNTLFLQMTSLRSEDTAIYYCAREGYAYDVDYWGQGTTLTVSS		binds
anti-Bright scFv 1.4L-1.4H (scFv) scFv: DIVMTQSPAIMSASPGEKVTITCSASSSVSYMHWFQQKPGTSPKLWIYSTSNLASGVPARFSGSGSGTSYSLTISRVEAEDAATYYCQQRSSYPLTFGAGTKLEIKGGGGSGGGGSGGGGSGGGGSEVQGVESGGGLVQPGGSRKLSCAASGFTFSSFGMHWVRQAPEKGLEWVAYISSGSSNIFYSDTVKGRFTISRDNPKNTLFLQMTSLRSEDTAMYYCARYDYGKDFDYWGQGTTLTVSS		binds

Second part, the binder after the results:

binding [1]	binding [2]	Binder
binds		anti-C1s scFv 2.2L-2.2H (scFv) scFv: DIVMTQSPASLAVSLGQRATISCRASESVDSYGNSFMHWYQQKPGQPPKLLIYRASNLESGIPARFSGSGSRTDFTLTINPVEADDVTTYYCQQSNEDPWTFGGGTKLEIKGGGGSGGGGSGGGGSGGGGSEVKLVESGGGFVKPGGSLKLSCAASGFTFSTYGMSWVRQTPEKRLEWVASISAGGTTYYSDSVKGRFTISRDNARNILYLQMSSLRSEDTAMYYCARWLLLAYWGQGTLVTSSA
binds		anti-C1s scFv 2.1L-2.1HA (scFv) scFv: DVLMTQTPLSLPVSLGDQASISCRSSQSIVHSNGDTYLEWYLQKPGQSPKLLVYKLSNRFSGVPDRFSGSGSGTDFTLKISRVEAEDLGVYYCFQGSHVPLTFGAGTKLEIKGGGGSGGGGSGGGGSGGGGSQVQLQQSGAELARPGASVKMSCKASGYTFTSYTMHWVKQRPGQGLEWIGYINPSSGYTNYNQKFKDKATLTADKSSSTANMQLSSLTSEDSAVYYCARSDRYDGYFDYWGQGTTLTVSSA
